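Assay on Mycobacterium tuberculosis, filed only as a heat shock assay from Cornell; the read-out is not stated. The concentration is filed as 10 mM, unlikely as a test dose, so the dose is not known. Direction is inferred from retests: higher values go with stronger inhibition. Of about 69,000 compounds tested this way, about 930 (1.4%) reached 50% or more in at least one test.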

Results are given as percent effect. How 0% and 100% were set is not recorded. Most values in the screen are low, and negative values occur. The compounds are a random part of those screened.

{"compound": "CCN1CCN(C(C)CNC(=O)Nc2nnc(C(C)C)s2)CC1", "stereo": "centres undefined", "percent effect": -11.06}
{"compound": "O=S(=O)(CCNCc1cccc2c1OCCO2)N1CCOCC1", "percent effect": -13.34}
{"compound": "CC(=O)N1N=C(c2ccco2)OC1C(=O)NCCc1ccc(O)cc1", "stereo": "centres undefined", "percent effect": 38.06}
{"compound": "CCc1nc(CCn2cc(-c3nccn3C)nn2)no1", "percent effect": -27.89}
{"compound": "CC(O)CN1CCc2onc(-c3ccccc3F)c2C1", "stereo": "centres undefined", "percent effect": -5.92}
{"compound": "Cc1cnc(N2CCC3(CC2)COCCN(C(C)C)C3)nc1.O=C(O)C(F)(F)F", "percent effect": 0.463}
{"compound": "N#CCCN(C(=O)CN1CCCC1c1ccccc1Cl)c1ccccc1", "stereo": "centres undefined", "percent effect": 16.74}
{"compound": "CN(CCc1cn[nH]c1)C(=O)C1CC(=O)N(Cc2cccnc2)C1", "stereo": "centres undefined", "percent effect": -21.6}
{"compound": "CCS(=O)(=O)N1CCc2onc(COc3ccccn3)c2C1.O=C(O)C(F)(F)F", "percent effect": -28.75}
{"compound": "O=C(c1ncccc1O)N1CCc2c(ncnc2N2CCOCC2)C1", "percent effect": 0.6565}
{"compound": "CN1C(=N)NC(=O)/C1=C\\c1ccc(-c2ccc(F)cc2)o1", "percent effect": -3.169}
{"compound": "Cc1ccn(-c2ccc(C(=O)N3CCCC(C(N)=O)C3)cc2)n1", "stereo": "centres undefined", "percent effect": 13.55}
{"compound": "[H][C@@]12CCC(=O)N(CCCOC)[C@]1([H])CCN(Cc1ccc3occc3c1)C2", "percent effect": -3.634}
{"compound": "CCCOCCN1CCN(c2ncnc3[nH]ccc23)CC1", "percent effect": -11.07}
{"compound": "CCc1noc(C(C)N2CCN(c3ccc(C#N)cc3F)CC2)n1", "stereo": "centres undefined", "percent effect": 3.224}
{"compound": "CC(C)OCCC(=O)N(C)c1ccc(F)c(Cl)c1", "percent effect": 13.37}
{"compound": "CC(C)c1nnc2n1CCN(C(=O)CN1Cc3ccccc3C1=O)C2", "percent effect": -5.683}
{"compound": "CN(CC(O)CO)C(=O)c1coc(COc2cccc(F)c2)n1", "stereo": "centres undefined", "percent effect": -10.24}
{"compound": "Cn1cccc1C(=O)N1CCC2(CCCN2S(C)(=O)=O)CC1", "percent effect": -2.304}
{"compound": "NC(=O)C1CCCN(c2ccc(CNC(=O)c3cnsn3)cc2)C1", "stereo": "centres undefined", "percent effect": 6.065}
{"compound": "Cc1nc(-c2ccc(Cl)s2)sc1C(=O)O", "percent effect": -19.49}
{"compound": "[H][C@@]12C[C@H](C)O[C@@]1([H])CCN(C(=O)CCOC)C2", "percent effect": 9.011}
{"compound": "O=C(NCC1CC1)C12CC(CN1Cc1nccs1)C2", "percent effect": 54.2}
{"compound": "COc1ccccc1CN(Cc1cccnc1)Cc1c[nH]c(C)n1", "percent effect": -32.08}
{"compound": "[H][C@]12C[C@H](C(=O)NCC3CC3)N(C)[C@@]1([H])CN(Cc1ccc(C)o1)C2", "percent effect": 1.562}
{"compound": "CNc1nc(N2CCN(C)C(CCO)C2)nc2c1CCC2", "stereo": "centres undefined", "percent effect": -44.08}
{"compound": "Cc1ccc(OCCNc2cccc(C(=O)N3CCOCC3)c2)cc1", "percent effect": -12.37}
{"compound": "OC1(c2ccccc2F)CCN(Cc2ccccc2N2CCCC2)CC1", "percent effect": -5.486}
{"compound": "CC(C)C(=O)N1CCC(NC2CCSCC2)C1", "stereo": "centres undefined", "percent effect": -0.3182}
{"compound": "COCC(NC1CCSCC1)c1ccnn1C", "stereo": "centres undefined", "percent effect": -12.06}
{"compound": "CC(C)Nc1cc(-c2c[nH]nc2C2CCN(C(=O)C3CCC3)C2)ccn1", "stereo": "centres undefined", "percent effect": 6.517}
{"compound": "CC1=C[C@@H](CN2CCC(O)CC2)[C@H](C(C)C)C[C@H]1Cc1nnc(C)o1", "percent effect": -9.527}
{"compound": "Cc1ccccc1OCCCC(=O)NC(C)c1nnc2n1CCC2", "stereo": "centres undefined", "percent effect": -20.27}

2 of the entries, repeated:

| compound | percent effect |
|---|---|
| `CCN1CCN(C(C)CNC(=O)Nc2nnc(C(C)C)s2)CC1` (centres undefined) | -11.06 |
| `CC(C)Nc1cc(-c2c[nH]nc2C2CCN(C(=O)C3CCC3)C2)ccn1` (centres undefined) | 6.517 |

Measurements from “University of Dundee, Small-Polar-MMV Screening Library” (2021), ChEMBL document CHEMBL3988442.